Measured values reported in PubChem BioAssay AID540276 (National Center for Advancing Translational Sciences (NCATS), 2011).
The whole screen tested about 300,000 compounds, of which about 5,400 (1.8%) were called active. Inconclusive means that the source gave no clear call. Such entries were picked first, then a sample of the others. Calls come from the whole dose curve; tested in HEK293 cells. A potency beside an inconclusive call is a rough fit, not a confirmed value.

assay: qHTS for inhibitors of binding or entry into cells for Marburg Virus; settings: Marburg virus pseudotyped entry inhibition, cell reporter; series mostly up to 37.8 µM
Potency is the fitted concentration of half-maximal effect.

| Compound | Potency |
| --- | --- |
| CCOC(=O)C(CC)(CC)C(=O)/C=C/c1ccc(Br)cc1 | inactive |
| COC(=O)c1ccc(NC(=O)C2CC(=O)N(c3ccc(C)cc3)C2)cc1 (configuration not stated) | inactive |
| Cc1sc2ncnc(N3CCC(C(=O)NNC(=O)COc4ccccc4F)CC3)c2c1C | inactive |
| O=C(N/N=C/C(Br)=C/c1ccccc1)NC1CCCCC1 | inactive |
| Cc1ccc(NC(=O)CNC(=O)c2cccs2)nc1 | inactive |
| Cc1cccc2cc(-c3nc4ccc(C(=O)O)cc4[nH]3)c(=O)oc12 | inconclusive: 2.82 µM [inhibitor, full curve] |
| NC(N)=NC(=O)c1nc(Cl)c(N)nc1N | inactive |
| COC(=O)c1c(NC(=S)NNS(=O)(=O)c2ccc(OC)cc2OC)sc2c1CCCCCC2 | inconclusive: 25.1 µM [inhibitor, single point] |
| O=C(/C(C=Nc1ccc(F)cc1)=C(/O)c1ccco1)C(F)(F)F | inconclusive: 35.5 µM [inhibitor, single point] |
| COc1cc2cc(CN(CCCN3CCOCC3)Cc3nnnn3Cc3ccccc3)c(=O)[nH]c2cc1OC | inconclusive: 28.2 µM [inhibitor, partial curve, poor fit] |
| COc1ccc(-n2nnnc2S(=O)(=O)Cc2ccc(C(=O)O)cc2)cc1 | inconclusive: 29.1 µM [inhibitor, single point] |
| S=c1[nH]nc(-c2ccc(Cl)cc2)n1/N=C/C=C/c1ccco1 | inactive |
| COC(=O)C1=C(N)Oc2cc(C)n(CC3CCCO3)c(=O)c2C1c1ccc(Cl)c(Cl)c1 (configuration not stated) | inconclusive: 20.6 µM [inhibitor, single point] |
| COc1ccc(OC)c(S(=O)(=O)Nc2cc3c4c(c2)CCN4C(=O)CC3)c1 | inactive |
| CCN(CC)c1ccc(NC(=O)C2CC3CCC2C3)cc1 (configuration not stated) | inconclusive: 12.6 µM [activator, partial curve, poor fit] |
| COc1ccc(CCNC(=O)C(Sc2ccccn2)c2ccccc2)cc1OC (configuration not stated) | inactive |
| CC(C)c1ccc(OCC(=O)N(Cc2ccccc2)c2ccccn2)cc1 | inactive |
| COc1ccccc1-c1cc(C(F)(F)F)nc(S(=O)(=O)CCCC(=O)Nc2cc(C)on2)n1 | inconclusive: 35.5 µM [inhibitor, partial curve, poor fit] |
| Nc1ccc2ccc3cccc[n+]3c2c1 | inactive |
| Oc1ccc(-n2nnnc2SCc2c(F)cccc2Cl)cc1 | inactive |
| CC(C)OCCCn1c(=O)c2ccccc2n2c(-c3cc(Cl)ccc3O)nnc12 | inactive |
| COC(=O)C1=CN(CCOC23CC4CC(CC(C4)C2)C3)C=C(C(=O)OC)C1c1ccsc1 | inconclusive: 0.794 µM [inhibitor, partial curve, poor fit] |
| COc1ccc(C(=O)C(C)(C)NO)cc1 | inconclusive: 35.5 µM [activator, single point] |
| CCCOc1ccc(C2c3c(-c4ccccc4O)n[nH]c3C(=O)N2Cc2cccnc2)cc1 (configuration not stated) | inconclusive: 35.5 µM [inhibitor, single point] |

Looked up by compound from the entries so far, two records:

| Compound | Potency |
| --- | --- |
| COC(=O)c1ccc(NC(=O)C2CC(=O)N(c3ccc(C)cc3)C2)cc1 (configuration not stated) | inactive |
| COc1ccc(OC)c(S(=O)(=O)Nc2cc3c4c(c2)CCN4C(=O)CC3)c1 | inactive |

Carrying on:

| Compound | Potency |
| --- | --- |
| CCCCCCn1c(SCC(=O)Nc2cc(C)on2)nc2ccccc2c1=O | inconclusive: 13 µM [inhibitor, partial curve, poor fit] |
| COc1ccc(-n2nc(C(=O)NCC(=O)Nc3ccccn3)c3ccccc3c2=O)cc1 | inconclusive: 20.6 µM [inhibitor, partial curve] |
| NC(Cc1c[nH]c2ccccc12)C(=O)NCc1ccccc1 (configuration not stated) | inconclusive: 22.4 µM [inhibitor, single point] |
| CCOC(=O)c1cc(-c2ccccc2)sc1NC(=O)COC(=O)c1cccc(S(N)(=O)=O)c1 | inconclusive: 14.1 µM [inhibitor, single point] |
| COc1ccc(C(C)=O)cc1CSc1nnc(Nc2ccccc2C)s1 | inactive |
| COc1ccccc1NS(=O)(=O)c1cc(N)ccc1N1CCCCC1 | inconclusive: 20.6 µM [inhibitor, single point] |
| C=CCSC1=NNC(c2ccc(C(C)(C)C)cc2)=NN1 | inactive |
| COc1ccccc1N1CCN(C2CCN(S(=O)(=O)c3ccc4ccccc4c3)CC2)CC1 | inconclusive: 4.11 µM [inhibitor, partial curve, poor fit] |
| COc1ccc(-c2cc3nc(C)c(CCC(=O)N4CCN(c5ccccc5F)CC4)c(C)n3n2)c(OC)c1 | inactive |
| COc1ccc(/C=N/NC(=O)CN2CCSCC2)cc1C | inactive |
| O=C(CSc1nc2ccccc2nc1Cc1ccccc1F)Nc1cccc(C(F)(F)F)c1 | inconclusive: 35.5 µM [activator, single point] |
| O=[N+]([O-])c1cccc(S(=O)(=O)Nc2ccc(S(=O)(=O)Nc3nccs3)cc2)c1 | inconclusive: 6.31 µM [activator, single point] |
| Cc1ccc(Cn2nnc3c(=O)n(CC(=O)NCc4ccc5c(c4)OCO5)cnc32)cc1 | inconclusive: 18.3 µM [inhibitor, single point] |
| Cc1ccn2c(CNCCCn3cccn3)c(C(=O)N3CCCCCC3)nc2c1 | inactive |
| CCc1cccc(C)c1Nc1c(-c2cccs2)nc2nc(C)cc(C)n12 | inactive |
| CCc1nc(N2CCC(C)CC2)c2oc3ccccc3c2n1 | inconclusive: 29.1 µM [inhibitor, single point] |
| CNS(=O)(=O)c1cnccc1N1CCN(c2cccc(C(F)(F)F)c2)CC1 | inactive |
| CC(C)CNC(=O)COc1ccccc1[N+](=O)[O-] | inconclusive: 6.31 µM [inhibitor, single point] |
| CCOc1cc(C(=O)NCc2nc(-c3cccc(C)c3)no2)cc(OCC)c1OCC | inconclusive: 17.8 µM [inhibitor, partial curve, poor fit] |
| COC(=O)c1ccc(COc2ccccc2/C=C(\C#N)C(=O)Nc2c(C)cc(C)cc2C)cc1 | inconclusive: 17.8 µM [inhibitor, single point] |
| CC(C)OC(=O)c1ccc(NCc2cc(O)ccc2O)cc1Cl | active: 2.24 µM |
| Cc1ccc(CNC(=O)Cc2noc3ccccc23)cc1 | inactive |
| CCN(CC)CCCOC(=O)C1(c2ccccc2)CCCC1 | inconclusive: 11.2 µM [inhibitor, partial curve] |

3 neighbouring records out of the list so far, quoted:

| Compound | Potency |
| --- | --- |
| Cc1sc2ncnc(N3CCC(C(=O)NNC(=O)COc4ccccc4F)CC3)c2c1C | inactive |
| O=C(N/N=C/C(Br)=C/c1ccccc1)NC1CCCCC1 | inactive |
| Cc1ccc(NC(=O)CNC(=O)c2cccs2)nc1 | inactive |
